Experimental findings from publication PMC5974925 are described below.

Tags and fusion partners may be left off the protein sequences shown. For part of these data: For at least one entry, the source does not settle the construct or the ends of the probe. For part of these data: Weaker means in comparison with the reference protein, sequence or condition of that experiment.

In series [1] the target is T1, SbbR-His6 (Streptomyces bingchenggensis BC04) (UniProt D7C006).
T1 sequence (looked up): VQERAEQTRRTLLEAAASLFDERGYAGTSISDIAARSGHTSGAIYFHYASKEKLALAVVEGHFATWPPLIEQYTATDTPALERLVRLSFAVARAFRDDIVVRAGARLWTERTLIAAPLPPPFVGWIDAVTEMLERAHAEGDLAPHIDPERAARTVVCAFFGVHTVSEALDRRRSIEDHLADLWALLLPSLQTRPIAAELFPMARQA
Put plainly: DNase I footprinting. Particulars: Footprinting: 200 ng probe, 50 ul, 25 C 25 min, recombinant protein, residues 34-239, protein details: C-terminal His6 (pET23b, NdeI/XhoI), probe letters rebuilt from the primers and the ….

Series [2] has as its target T1, SbbR-His6 (Streptomyces bingchenggensis BC04). The experiment in a line: EMSA. Particulars: EMSA: 20 mM Tris base, 2 mM DTT, 5 mM MgCl2, 0.5 ug calf BSA, 5% glycerol, 20 ul, 10 ng probe, 25 C 25 min (poly[d(I-C)] 500 ng when necessary), pH not stated, recombinant protein, residues 34-239, protein details: C-terminal His6 (pET23b, NdeI/XhoI), probe letters rebuilt from the primers and the genome.

In the case of “TCGCGTAGTGGAAGTAGATGGCGCCGCTGGTGTGGCCGGACCGGGCGGCGATATCGCTGATGCTGGTGCCGGCGTAGCCCCGTTCGTCGAAGAGGGAAGCCGCCGCTTCCAGGAGGGTTCGGCGTGTCTGCTCGGCCCGCTCTTGCACGTGGTGTCCGTCCTCGTTCCGTCGCGTGCGGTGCGTTGTCGGGGTGAACTTAGCGGACTTGTCGCATGTCATGGAGGTGAAGACCCACAGGTCCATCATTACTAGTATTTTATGGCGATCATTGGTGAGGCGTGTGGCGTCCCGGAGCCGTGGGAGCTCGTGGCGCGGCGGCTGAGCTGGTCCCGCACCGTGGCGCGCGAGGCGGTGCACCGCGCCTCGGTGGCCGAAGTGCTGCTCACCGACGTCCGCGCACTGGGTGGCGGCCGGTTCGTGGCCGCGGTGCAGTGGCCACGCTCCCATCCCACGTTCCCGCATG (double strand) [PR-A, FAM-labeled]”, the binding result in series [1] (label: 5' FAM (S35), HEX-named reverse primer (S36)) is on record as “binds”.

Consider “GGCCCTCCAGGACTGCTGTCACGGATCATGACTGGTTCCGGACCGCAGTGTGTGCGGGTTCGCTCGAGTCCCGGCGGAGTCGCCCTCGTACGTCGGCGGAGCGCCACTCGCCGCCCTCCGCCGGCCCGGGCTAATACACCCAGGTATGCAGCAATGGAATAAGCGACCCCATGCCACTTATTACTGAGATCAACTTGTGGCTCACATCACAGGCCACATTTCCGCATCGCCATGGAATGATGCCACGGTGTTCGCCTCAAGGTTTCGGCCAGCCGTAACAAGGGGAGACAAGAAATGCCGACGATGATTGTCATCGGACATAGGGACGGTCTCGACCACGCACTGCAGCGCCGAGGTTTGGAGCCTTTCTATATCGTGCAGGCGCCGGTGAACACGCCGGCGGGTCGGCGTTTCAGGCGTGTCATCGACATGG (double strand) [PmilR]”, for which the binding result in series [2] (0.2 uM SbbR + ethyl acetate extract of BC04 (dissociates complex)) is on record as “binds more weakly”; in series [2] (0.2 uM SbbR + high concentration of ethyl acetate extract of sbbA deletion strain (dissociates complex)), “binds more weakly”; in series [2] (concentration-dependent, not dissociated by 500-fold poly(dI-dC)), “binds”.

With “GGCCCTCCAGGACTGCTGTCACGGATCATGACTGGTTCCGGACCGCAGTGTGTGCGGGTTCGCTCGAGTCCCGGCGGAGTCGCCCTCGTACGTCGGCGGAGCGCCACTCGCCGCCCTCCGCCGGCCCGGGCTAATACACCCAGGTATGCAGCAATGGAATAAGCGACCCCATGCCACTTATTACTGAGATCAACTTGTGGCTCACATCACAGGCCACATTTCCGCATCGCCATGGAATGATGCCACGGTGTTCGCCTCAAGGTTTCGGCCAGCCGTAACAAGGGGAGACAAGAAATGCCGACGATGATTGTCATCGGACATAGGGACGGTCTCGACCACGCACTGCAGCGCCGAGGTTTGGAGCCTTTCTATATCGTGCAGGCGCCGGTGAACACGCCGGCGGGTCGGCGTTTCAGGCGTGTCATCGACATGG (double strand) [PmilR, FAM-labeled]”, in series [1] (label: 5' FAM (S33), HEX-named reverse primer (S34)), the binding result is “binds”.

With “ACCAGCAGGCTCAGCAACCGCTGGCCCGCAGGGGCGATCAGCACGGACTGTCCCTCGTATCGAAGTTCGAAACTTCCCATGAGCGACAAATGGGGAAGGTGGTGCAGGCGGTACTCGTCGGAGTGCTTCTGCATTGCGCCTCCTCAGACCACGAAGAAGCCGTCGCGGGCGAAGTGGGAATCCCTGGCGCGGCAGCTCCGGCGGTCCTCGGTGAGGATTGCGCACTTCGCGTCGAAATCCGTGGTGCGCCTTTTGGCGGCTGCCACCTGGGGCTCTGCCGACGCGCGTGCCGCGCTGTATCAGTGCCGCACCTCCCATTGGAACACCGCAAGACTTTTGGCACATCTGCGCGCGGGGGTGACGTCGTGGTGACGAGCCGGTGATCCGGTTCCACCAAGCTCCTCTCAGTGACCTGGCTGGTGACCCGGCACTGGGGACGGCAAAGAGACGAGGGGAGACACCGTGTTCACGCACCGCTTCGCATCCTCACCACCGTTCTGCTGGTCTGCGCGCTTCCATTCGCACCGACGCACCAGAATTCCGACCAAGATCTACGACGGGATGCTGCTGCTTCTCGTCATTCTCGCCGTGGCACACCACTCGCCTGGCCGGGGACTTCTGCTGGCGGCCTTTCTCATGTGCCGCGTCATTGGCCGTCCCCTCGCCCATAATTGGCTGACACCTTCCACGCCCGGCCCTTCCGCGCCCGGCCTCCCGGAATACGGGCGGCACCGATGAGTGCTCCGGCGGTCACGCATCCGACCCGTACCGCAGTCCCGGACGAACGCTCCCAGGTCCTCGGAAGGCTTTGCGACCTCCGGTCCCGAGGCAGGTGGCGGTTCCGACTGGCCCTGCTCGGCCCCGCCTTCGTCGTGGCTGTGGCGT (double strand) [Psbi_08432]”, in series [2] (0.1-0.2 uM SbbR), the binding result is “binds”.
